Source: PubChem BioAssay AID720710 (VTT Finland, 2013)

Screen: 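Knock-downs that leave cyclin E-high cells sensitive to replication stress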 (primary screen)
Cells: human U-2 OS bone cancer cells, parental and a cyclin E (CCNE1) overexpressing line
Reagent: single siRNA against human genes, 1 µM siRNA in the printed spot mix
Timing: 67 h
Treatment: half the arrays: hydroxyurea 2 mM for 16 h, then 3 h recovery; other arrays untreated
Detection: 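DNA synthesis measured as imaged EdU uptake per nucleus (DAPI) at 67 h, normalised to subgrid median and given as z-score versus non-targeting controls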
Reading the numbers: EdU z-score, cyclin E line, hydroxyurea and EdU z-score, parental, hydroxyurea and EdU z-score, cyclin E line, untreated and EdU z-score, parental, untreated: higher = more DNA synthesis than non-targeting controls
The whole screen tested about 1,380 reagents; below is a part drawn at random. 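One array per condition without replicates; hydroxyurea arrays received 2 mM for 16 h plus 3 h recovery.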 The numbers tell different reagents against one gene apart.

no.	gene knocked down	siRNA no.	EdU z-score, cyclin E line, hydroxyurea	EdU z-score, parental, hydroxyurea	EdU z-score, cyclin E line, untreated	EdU z-score, parental, untreated
1	TP53 (tumor protein p53)	1	-1.97	-0.845	-0.329	0.22
2	TP53 (tumor protein p53)	2	-0.819	1.35	0.899	2.25
3	GTF2H1 (general transcription factor IIH subunit 1)	1	-1.4	-1.11	-2.56	-1.84
4	GTF2H1 (general transcription factor IIH subunit 1)	2	-0.884	-0.869	-0.537	-0.128
5	FANCA (FA complementation group A)	1	-0.6	-0.0101	0.116	-0.829
6	FANCA (FA complementation group A)	2	1.45	0.515	0.361	1.19
7	NIPBL (NIPBL cohesin loading factor)	1	-0.0652	0.284	-3.54	-2.11
8	NIPBL (NIPBL cohesin loading factor)	2	1.6	3.14	-0.44	-0.736
9	GTSE1 (G2 and S-phase expressed 1)	1	-0.776	-1.34	-2.65	0.0805
10	GTSE1 (G2 and S-phase expressed 1)	2	2.6	-0.727	-1.19	0.782
11	SIRT2 (sirtuin 2)	1	-1.57	-2.77	1.27	-0.652
12	SIRT2 (sirtuin 2)	2	-0.0663	-0.504	1.46	0.609
13	ZW10 (zw10 kinetochore protein)	1	-1.33	-2.57	-0.839	-1.99
14	ZW10 (zw10 kinetochore protein)	2	-1.27	1.68	-0.772	-1.51
15	TK2 (thymidine kinase 2)	1	-0.0792	-0.614	-1.74	-1.28
16	TK2 (thymidine kinase 2)	2	0.965	1.22	-0.191	-1.16
17	CHD2 (chromodomain helicase DNA binding protein 2)	1	-1.14	-2.88	0.0692	-1.1
18	CHD2 (chromodomain helicase DNA binding protein 2)	2	1.2	-0.771	1.3	-0.518
19	IGF1 (insulin like growth factor 1)	1	-0.576	-0.49	-1.12	0.318
20	IGF1 (insulin like growth factor 1)	2	1.06	3.56	0.495	0.384
21	ORC1 (origin recognition complex subunit 1)	1	-0.161	-2.95	-2.72	-0.841
22	ORC1 (origin recognition complex subunit 1)	2	-0.151	-0.334	0.0127	-0.521
23	HLTF (helicase like transcription factor)	1	-0.068	-1.97	-2.26	-0.844
24	HLTF (helicase like transcription factor)	2	0.74	2.94	1.19	0.0468
